Laboratory results as given in paper PMC10643120 (Nature structural & molecular biology, 2023).

Amino acid sequences for entries named in this document (tags omitted). A change or cut given only in a name is not applied to a line headed by its entry.
UniProt B3FJX8: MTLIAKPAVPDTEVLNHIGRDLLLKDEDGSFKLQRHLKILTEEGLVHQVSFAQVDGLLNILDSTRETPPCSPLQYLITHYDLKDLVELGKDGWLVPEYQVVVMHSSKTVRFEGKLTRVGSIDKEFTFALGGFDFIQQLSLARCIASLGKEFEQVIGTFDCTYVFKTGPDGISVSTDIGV

Legend:
Test in all cases: pull-down; His6-tagged gp2 co-expressed with the untagged partner in E. coli; Ni2+ pull-down, SDS-PAGE
[1] = molecular target: His6-tagged 201Φ2-1 gp2 (ChmB), wild type (Pseudomonas phage 201Φ2-1) (UniProt B3FJX8)
[2] = molecular target: His6-tagged 201Φ2-1 gp2 A145D (Pseudomonas phage 201Φ2-1)
[3] = molecular target: His6-tagged 201Φ2-1 gp2 Q53A (Pseudomonas phage 201Φ2-1)

binding [1]: binds
binding [2]: binds
binding [3]: binds
B1: 201Φ2-1 ChmA (gp105), full-length, untagged (protein, UniProt B3FIW8 1-631)
chain: MIRDTATNTTQTQAAPQQAPAQQFTQAPQEKPMQSTQSQPTPSYAGTGGINSQFTRSGNVQGGDARASEALTVFTRLKEQAVAQQDLADDFSILRFDRDQHQVGWSSLVIAKQISLNGQPVIAVRPLILPNNSIELPKRKTNIVNGMQTDVIESDIDVGTVFSAQYFNRLSTYVQNTLGKPGAKVVLAGPFPIPADLVLKDSELQLRNLLIKSVNACDDILALHSGERPFTIAGLKGQQGETLAAKVDIRTQPLHDTVGNPIRADIVVTTQRVRRNGQQENEFYETDVKLNQVAMFTNLERTPQAQAQTLFPNQQQVATPAPWVASVVITDVRNADGIQANTPEMYWFALSNAFRSTHGHAWARPFLPMTGVAKDMKDIGALGWMSALRNRIDTKAANFDDAQFGQLMLSQVQPNPVFQIDLNRMGETAQMDSLQLDAAGGPNAQKAAATIIRQINNLGGGGFERFFDHTTQPILERTGQVIDLGNWFDGDEKRDRRDLDNLAALNAAEGNENEFWGFYGAQLNPNLHPDLRNRQSRNYDRQYLGSTVTYTGKAERCTYNAKFIEALDRYLAEAGLQITMDNTSVLNSGQRFMGNSVIGNNMVSGQAQVHSAYAGTQGFNTQYQTGPSSFY

No constants are given. Whether binding was seen depends on the method and setting. Binding seen in cells or lysates may run through a third protein. Binding calls can cover weak binding; strength is not graded here. Tags and fused reporters may be left off the sequences shown.
